In article doi:10.1101/604223:
These are yes or no findings as the source states them, for the method shown. Binding seen in cells or lysates may run through a third protein. Some results given as binding are weak or reduced against the parent protein; the word gives no strength.

Protein sequences, listed by entry. Tags and fused reporters are not part of them.
UniProt Q5EE01: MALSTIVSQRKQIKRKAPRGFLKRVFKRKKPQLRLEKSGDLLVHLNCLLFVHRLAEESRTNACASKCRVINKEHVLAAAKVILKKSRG
UniProt Q92674: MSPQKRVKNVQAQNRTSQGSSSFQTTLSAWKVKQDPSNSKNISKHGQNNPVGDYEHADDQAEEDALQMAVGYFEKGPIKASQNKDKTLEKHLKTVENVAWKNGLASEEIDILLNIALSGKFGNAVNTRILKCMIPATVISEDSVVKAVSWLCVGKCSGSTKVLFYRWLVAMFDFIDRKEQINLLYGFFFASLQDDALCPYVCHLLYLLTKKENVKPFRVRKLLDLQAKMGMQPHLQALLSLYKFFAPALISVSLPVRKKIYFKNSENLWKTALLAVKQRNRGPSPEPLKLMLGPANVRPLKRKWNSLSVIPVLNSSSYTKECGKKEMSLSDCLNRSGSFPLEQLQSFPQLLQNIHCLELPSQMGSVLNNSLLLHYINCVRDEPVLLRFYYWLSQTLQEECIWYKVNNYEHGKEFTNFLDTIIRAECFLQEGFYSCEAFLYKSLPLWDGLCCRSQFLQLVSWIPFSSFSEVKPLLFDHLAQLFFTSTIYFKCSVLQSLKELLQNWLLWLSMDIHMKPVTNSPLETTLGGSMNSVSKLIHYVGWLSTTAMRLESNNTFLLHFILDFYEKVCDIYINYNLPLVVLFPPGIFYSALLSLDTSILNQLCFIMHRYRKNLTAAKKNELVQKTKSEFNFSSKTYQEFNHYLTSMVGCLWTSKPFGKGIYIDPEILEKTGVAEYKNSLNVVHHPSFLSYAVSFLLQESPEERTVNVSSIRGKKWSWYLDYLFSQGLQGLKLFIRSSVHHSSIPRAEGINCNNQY

These molecules were tested against CENP-C (human (endogenous in HeLa)) (UniProt Q03188) (assay: co-IP).

binding | Molecule
binds | CENP-T (from UniProt Q96BT3 1-561)
binds | CENP-W (from UniProt Q5EE01 1-88)

Second part, the molecule before the results:

Molecule | binding
CENP-I (from UniProt Q92674 1-756) | binds
HEC1/NDC80 (from UniProt O14777 1-642) | binds
CENP-B (protein, UniProt P07199 1-599) MGPKRRQLTFREKSRIIQEVEENPDLRKGEIARRFNIPPSTLSTILKNKRAILASERKYGVASTCRKTNKLSPYDKLEGLLIAWFQQIRAAGLPVKGIILKEKALRIAEELGMDDFTASNGWLDRFRRRHGVVSCSGVARARARNAAPRTPAAPASPAAVPSEGSGGSTTGWRAREEQPPSVAEGYASQDVFSATETSLWYDFLPDQAAGLCGGDGRPRQATQRLSVLLCANADGSEKLPPLVAGKSAKPRAGQAGLPCDYTANSKGGVTTQALAKYLKALDTRMAAESRRVLLLAGRLAAQSLDTSGLRHVQLAFFPPGTVHPLERGVVQQVKGHYRQAMLLKAMAALEGQDPSGLQLGLTEALHFVAAAWQAVEPSDIAACFREAGFGGGPNATITTSLKSEGEEEEEEEEEEEEEEGEGEEEEEEGEEEEEEGGEGEELGEEEEVEEEGDVDSDEEEEEDEESSSEGLEAEDWAQGVVEAGGSFGAYGAQEEAQCPTLHFLEGGEDSDSDSEEEDDEEEDDEDEDDDDDEEDGDEVPVPSFGEAMAYFAMVKRYLTSFPIDDRVQSHILHLEHDLVHVTRKNHARQAGVRGLGHQS | binds
